For this test, the system named is MCF7. The test can be described thus: Cytotoxicity against human MCF7 cells by resazurin microplate assay. In kind it is functional, cell-based. In short, it runs like this:
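Resazurin microplate assay on human cancer lines: KB (oral epidermoid carcinoma), MCF-7 (breast cancer) and NCI-H187 (small-cell lung cancer). IC50 values were read from the assay, with doxorubicin hydrochloride as the reference standard.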

This passage reports IC50 results from ChEMBL document CHEMBL1649361, “Pyridone and tetramic acid alkaloids from the spider pathogenic fungus Torrubiella sp. BCC 2165” (J Nat Prod, 2010).

With `COc1cccc2c1C(=O)c1c(O)c3c(c(O)c1C2=O)C[C@@](O)(C(=O)CO)C[C@@H]3O[C@H]1C[C@H](N)[C@H](O)[C@H](C)O1` [DOXORUBICIN], the IC50 was 2300 nM.
